In paper PMC5994830:
These are yes or no findings as the source states them, for the method shown. In cells and extracts the contact can be indirect. Some binding calls cover weakened binding; strength is not graded here. Sequences can lack the tags named with a protein.

The chains behind the UniProt entries cited, without tags or fusion partners.
UniProt P35569: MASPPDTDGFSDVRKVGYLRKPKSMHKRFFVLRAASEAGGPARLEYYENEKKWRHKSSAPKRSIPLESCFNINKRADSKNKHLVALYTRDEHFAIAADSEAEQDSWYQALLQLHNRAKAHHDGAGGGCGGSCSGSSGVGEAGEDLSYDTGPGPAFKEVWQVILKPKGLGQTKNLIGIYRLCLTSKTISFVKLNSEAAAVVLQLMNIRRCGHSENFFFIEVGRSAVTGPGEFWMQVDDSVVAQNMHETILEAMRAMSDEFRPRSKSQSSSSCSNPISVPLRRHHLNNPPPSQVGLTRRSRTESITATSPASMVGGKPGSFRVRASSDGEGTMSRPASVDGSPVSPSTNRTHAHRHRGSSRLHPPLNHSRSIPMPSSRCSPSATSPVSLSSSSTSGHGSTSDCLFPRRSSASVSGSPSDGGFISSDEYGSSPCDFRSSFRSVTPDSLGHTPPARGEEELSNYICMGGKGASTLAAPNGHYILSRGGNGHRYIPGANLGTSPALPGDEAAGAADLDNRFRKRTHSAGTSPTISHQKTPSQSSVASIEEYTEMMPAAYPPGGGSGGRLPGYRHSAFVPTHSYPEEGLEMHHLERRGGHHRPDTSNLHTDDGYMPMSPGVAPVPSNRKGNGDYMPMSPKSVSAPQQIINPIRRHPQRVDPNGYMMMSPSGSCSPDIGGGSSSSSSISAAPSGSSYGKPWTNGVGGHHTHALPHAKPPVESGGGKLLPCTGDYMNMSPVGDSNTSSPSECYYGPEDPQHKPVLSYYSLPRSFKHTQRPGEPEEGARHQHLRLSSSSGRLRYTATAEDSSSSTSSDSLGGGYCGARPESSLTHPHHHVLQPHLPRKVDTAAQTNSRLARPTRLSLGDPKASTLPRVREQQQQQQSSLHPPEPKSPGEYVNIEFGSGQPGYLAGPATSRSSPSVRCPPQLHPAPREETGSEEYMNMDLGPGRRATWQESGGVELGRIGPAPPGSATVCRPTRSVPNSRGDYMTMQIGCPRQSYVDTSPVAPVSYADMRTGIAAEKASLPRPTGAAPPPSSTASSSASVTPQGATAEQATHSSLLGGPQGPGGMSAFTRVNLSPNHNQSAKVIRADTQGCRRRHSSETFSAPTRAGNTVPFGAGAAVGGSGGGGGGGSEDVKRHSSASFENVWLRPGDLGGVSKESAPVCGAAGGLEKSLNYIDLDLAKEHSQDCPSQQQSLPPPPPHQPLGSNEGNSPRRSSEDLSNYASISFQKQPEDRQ

Experiments:
[1] = biological target: N-terminal luciferase fused with IRS-1 (NLUC-IRS-1) (UniProt P35569); test: split reporter; cell-based BiLC: stable HEK 293 cells incubated with MID chemicals for 24 h, then lysed; luminescence read with Steady-Glow Luciferase assay kit
[2] = biological target: N-terminal luciferase fused with IRS-1 (NLUC-IRS-1) (UniProt P35569); test: split reporter; lysate-based bimolecular luminescence complementation (BiLC): lysates of the stable HEK 293 line incubated with MID chemicals for 1 h; luminescence read with Steady-Glow Luciferase assay kit
[3] = biological target: Flag-IRS-1 (UniProt P35569); test: co-IP; reciprocal co-immunoprecipitation from transfected HEK 293 cells without MID-00935; IP lysis buffer (20 mM Tris-HCl pH 7.5, 150 mM NaCl, 1% Nonidet P-40, 5% glycerol, 1 mM EDTA), 500 μg protein, antibody 24 h at 4°C; wild-type HA-MG53 in the presence of MG132 (2.5 μM)
[4] = biological target: Flag-IRS-1 (UniProt P35569); test: co-IP; as a3, but cells treated with MID-00935 (10 μM) for 12 h; wild-type HA-MG53 in the presence of MG132 (2.5 μM)

Row | binding [1] | binding [2] | binding [3] | Binder | binding [4]
1 | binds | binds |  | C-terminal luciferase fused with MG53 C14A (CLUC-C14A) (enzyme, UniProt Q1XH17 1-477) MSAAPGLLRQELSAPLCLQLFDAPVTAECGHSFCRACLIRVAGEPAADGTVACPCCQAPTRPQALSTNLQLSRLVEGLAQVPQGHCEEHLDPLSIYCEQDRTLVCGVCASLGSHRGHRLLPAAEAQARLKTQLPQQKMQLQEACMRKEKTVAVLEHQLVEVEETVRQFRGAVGEQLGKMRMFLAALESSLDREAERVRGDAGVALRRELSSLNSYLEQLRQMEKVLEEVADKPQTEFLMKFCLVTSRLQKILSESPPPARLDIQLPVISDDFKFQVWKKMFRALMPALEELTFDPSSAHPSLVVSSSGRRVECSDQKAPPAGEDTRQFDKAVAVVAQQLLSQGEHYWEVEVGDKPRWALGVMAADASRRGRLHAVPSQGLWLLGLRDGKILEAHVEAKEPRALRTPERPPARIGLYLSFADGVLAFYDASNPDVLTPIFSFHERLPGPVYPIFDVCWHDKGKNAQPLLLVGPEQEQA | 
2 |  |  | binds | HA-MG53 (enzyme, UniProt Q1XH17 1-477) MSAAPGLLRQELSCPLCLQLFDAPVTAECGHSFCRACLIRVAGEPAADGTVACPCCQAPTRPQALSTNLQLSRLVEGLAQVPQGHCEEHLDPLSIYCEQDRTLVCGVCASLGSHRGHRLLPAAEAQARLKTQLPQQKMQLQEACMRKEKTVAVLEHQLVEVEETVRQFRGAVGEQLGKMRMFLAALESSLDREAERVRGDAGVALRRELSSLNSYLEQLRQMEKVLEEVADKPQTEFLMKFCLVTSRLQKILSESPPPARLDIQLPVISDDFKFQVWKKMFRALMPALEELTFDPSSAHPSLVVSSSGRRVECSDQKAPPAGEDTRQFDKAVAVVAQQLLSQGEHYWEVEVGDKPRWALGVMAADASRRGRLHAVPSQGLWLLGLRDGKILEAHVEAKEPRALRTPERPPARIGLYLSFADGVLAFYDASNPDVLTPIFSFHERLPGPVYPIFDVCWHDKGKNAQPLLLVGPEQEQA | no binding (condition: with MID-00935 (10 μM))
3 |  |  | binds | HA-MG53 C14A (enzyme, UniProt Q1XH17 1-477) MSAAPGLLRQELSAPLCLQLFDAPVTAECGHSFCRACLIRVAGEPAADGTVACPCCQAPTRPQALSTNLQLSRLVEGLAQVPQGHCEEHLDPLSIYCEQDRTLVCGVCASLGSHRGHRLLPAAEAQARLKTQLPQQKMQLQEACMRKEKTVAVLEHQLVEVEETVRQFRGAVGEQLGKMRMFLAALESSLDREAERVRGDAGVALRRELSSLNSYLEQLRQMEKVLEEVADKPQTEFLMKFCLVTSRLQKILSESPPPARLDIQLPVISDDFKFQVWKKMFRALMPALEELTFDPSSAHPSLVVSSSGRRVECSDQKAPPAGEDTRQFDKAVAVVAQQLLSQGEHYWEVEVGDKPRWALGVMAADASRRGRLHAVPSQGLWLLGLRDGKILEAHVEAKEPRALRTPERPPARIGLYLSFADGVLAFYDASNPDVLTPIFSFHERLPGPVYPIFDVCWHDKGKNAQPLLLVGPEQEQA | no binding (condition: with MID-00935 (10 μM))
